The list shows a part of the results. Residues, ends and D or L forms follow the SMILES beside them. *: point of attachment. Cbz = O=C(OCc1ccccc1)*
How the values were obtained:
Test in all cases: log2 fold change, soluble protein after heating vs DMSO (PISA); higher = thermal stabilisation; K562 cells, 10 uM, 30 min; active = over 0.2 and 3.5 SD of the protein, either way, in both replicates (recomputed)
[1] = compound: C#Cc1cccc(Nc2ncnc3cc(OCCOC)c(OCCOC)cc23)c1 [erlotinib]
Summary of the method: (§1)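 For each measurement, 10 μM compound was applied for 30 min to K562 cells at 2×10^6 cells/mL. Aliquots were heated for 3 min across 48°C-58°C, pooled, and extracted in PBS with 0.5% NP-40 at 4°C; the supernatant after 21,000xg for 90 min was soluble protein. This was quantified by TMTpro 16plex LC-MS/MS with channel sums equalised, and thermal stability was reported relative to control samples from duplicates, on a log2 fold-change scale.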

Sequences of proteins named here, by UniProt entry; tags and fusion partners are left off. A change or cut given only in a name is not applied to a line headed by its entry.
UniProt Q13200: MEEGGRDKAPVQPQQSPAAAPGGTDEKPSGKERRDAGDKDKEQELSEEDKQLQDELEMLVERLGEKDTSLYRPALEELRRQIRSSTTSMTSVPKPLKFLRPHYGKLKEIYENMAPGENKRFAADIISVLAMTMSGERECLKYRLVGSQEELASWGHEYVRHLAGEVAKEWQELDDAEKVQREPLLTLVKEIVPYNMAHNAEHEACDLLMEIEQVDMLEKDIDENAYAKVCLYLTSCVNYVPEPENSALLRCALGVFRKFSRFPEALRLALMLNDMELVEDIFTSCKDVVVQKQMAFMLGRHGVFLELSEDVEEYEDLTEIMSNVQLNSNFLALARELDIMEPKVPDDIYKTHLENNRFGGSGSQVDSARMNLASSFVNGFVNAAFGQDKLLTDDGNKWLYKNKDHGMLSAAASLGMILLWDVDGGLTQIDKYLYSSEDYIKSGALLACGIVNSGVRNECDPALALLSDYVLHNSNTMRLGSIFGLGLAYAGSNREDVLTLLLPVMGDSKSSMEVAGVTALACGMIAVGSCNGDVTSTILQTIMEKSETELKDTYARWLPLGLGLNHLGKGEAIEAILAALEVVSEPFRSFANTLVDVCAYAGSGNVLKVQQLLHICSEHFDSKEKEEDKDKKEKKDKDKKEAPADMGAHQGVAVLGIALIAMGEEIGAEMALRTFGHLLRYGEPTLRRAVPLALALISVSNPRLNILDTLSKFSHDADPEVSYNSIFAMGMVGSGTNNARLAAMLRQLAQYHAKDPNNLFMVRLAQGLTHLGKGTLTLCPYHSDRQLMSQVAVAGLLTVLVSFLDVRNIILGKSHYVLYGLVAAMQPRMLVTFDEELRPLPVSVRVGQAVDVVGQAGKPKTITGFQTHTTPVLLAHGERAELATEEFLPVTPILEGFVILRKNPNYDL
UniProt P20618: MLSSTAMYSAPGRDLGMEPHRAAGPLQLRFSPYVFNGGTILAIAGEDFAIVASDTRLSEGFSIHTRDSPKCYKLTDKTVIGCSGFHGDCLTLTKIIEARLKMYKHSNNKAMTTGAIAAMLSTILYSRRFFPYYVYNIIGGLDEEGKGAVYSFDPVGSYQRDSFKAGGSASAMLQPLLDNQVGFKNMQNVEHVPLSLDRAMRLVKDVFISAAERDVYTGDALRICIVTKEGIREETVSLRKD
UniProt P43686, whole entry, looked up: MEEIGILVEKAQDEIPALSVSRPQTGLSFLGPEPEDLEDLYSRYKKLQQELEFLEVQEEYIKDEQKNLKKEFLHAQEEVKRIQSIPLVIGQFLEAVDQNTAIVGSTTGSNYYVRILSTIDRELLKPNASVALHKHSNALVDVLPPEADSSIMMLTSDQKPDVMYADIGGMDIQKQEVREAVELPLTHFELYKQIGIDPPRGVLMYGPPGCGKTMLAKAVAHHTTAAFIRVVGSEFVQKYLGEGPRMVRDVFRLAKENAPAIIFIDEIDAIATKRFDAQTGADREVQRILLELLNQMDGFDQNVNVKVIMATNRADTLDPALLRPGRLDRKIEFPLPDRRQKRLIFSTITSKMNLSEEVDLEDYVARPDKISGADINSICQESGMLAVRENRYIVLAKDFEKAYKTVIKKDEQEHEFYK
UniProt Q15008: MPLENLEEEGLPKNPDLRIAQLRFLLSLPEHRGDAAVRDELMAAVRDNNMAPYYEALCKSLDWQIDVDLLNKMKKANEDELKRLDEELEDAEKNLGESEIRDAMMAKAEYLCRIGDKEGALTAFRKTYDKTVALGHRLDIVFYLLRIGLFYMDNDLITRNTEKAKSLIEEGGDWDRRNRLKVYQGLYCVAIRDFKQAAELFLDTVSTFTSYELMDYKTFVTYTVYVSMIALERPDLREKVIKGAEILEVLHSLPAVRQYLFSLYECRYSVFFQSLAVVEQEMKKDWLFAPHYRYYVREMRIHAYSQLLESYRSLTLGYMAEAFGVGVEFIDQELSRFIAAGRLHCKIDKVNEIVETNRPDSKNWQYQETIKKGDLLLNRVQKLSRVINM
UniProt Q9H3S7: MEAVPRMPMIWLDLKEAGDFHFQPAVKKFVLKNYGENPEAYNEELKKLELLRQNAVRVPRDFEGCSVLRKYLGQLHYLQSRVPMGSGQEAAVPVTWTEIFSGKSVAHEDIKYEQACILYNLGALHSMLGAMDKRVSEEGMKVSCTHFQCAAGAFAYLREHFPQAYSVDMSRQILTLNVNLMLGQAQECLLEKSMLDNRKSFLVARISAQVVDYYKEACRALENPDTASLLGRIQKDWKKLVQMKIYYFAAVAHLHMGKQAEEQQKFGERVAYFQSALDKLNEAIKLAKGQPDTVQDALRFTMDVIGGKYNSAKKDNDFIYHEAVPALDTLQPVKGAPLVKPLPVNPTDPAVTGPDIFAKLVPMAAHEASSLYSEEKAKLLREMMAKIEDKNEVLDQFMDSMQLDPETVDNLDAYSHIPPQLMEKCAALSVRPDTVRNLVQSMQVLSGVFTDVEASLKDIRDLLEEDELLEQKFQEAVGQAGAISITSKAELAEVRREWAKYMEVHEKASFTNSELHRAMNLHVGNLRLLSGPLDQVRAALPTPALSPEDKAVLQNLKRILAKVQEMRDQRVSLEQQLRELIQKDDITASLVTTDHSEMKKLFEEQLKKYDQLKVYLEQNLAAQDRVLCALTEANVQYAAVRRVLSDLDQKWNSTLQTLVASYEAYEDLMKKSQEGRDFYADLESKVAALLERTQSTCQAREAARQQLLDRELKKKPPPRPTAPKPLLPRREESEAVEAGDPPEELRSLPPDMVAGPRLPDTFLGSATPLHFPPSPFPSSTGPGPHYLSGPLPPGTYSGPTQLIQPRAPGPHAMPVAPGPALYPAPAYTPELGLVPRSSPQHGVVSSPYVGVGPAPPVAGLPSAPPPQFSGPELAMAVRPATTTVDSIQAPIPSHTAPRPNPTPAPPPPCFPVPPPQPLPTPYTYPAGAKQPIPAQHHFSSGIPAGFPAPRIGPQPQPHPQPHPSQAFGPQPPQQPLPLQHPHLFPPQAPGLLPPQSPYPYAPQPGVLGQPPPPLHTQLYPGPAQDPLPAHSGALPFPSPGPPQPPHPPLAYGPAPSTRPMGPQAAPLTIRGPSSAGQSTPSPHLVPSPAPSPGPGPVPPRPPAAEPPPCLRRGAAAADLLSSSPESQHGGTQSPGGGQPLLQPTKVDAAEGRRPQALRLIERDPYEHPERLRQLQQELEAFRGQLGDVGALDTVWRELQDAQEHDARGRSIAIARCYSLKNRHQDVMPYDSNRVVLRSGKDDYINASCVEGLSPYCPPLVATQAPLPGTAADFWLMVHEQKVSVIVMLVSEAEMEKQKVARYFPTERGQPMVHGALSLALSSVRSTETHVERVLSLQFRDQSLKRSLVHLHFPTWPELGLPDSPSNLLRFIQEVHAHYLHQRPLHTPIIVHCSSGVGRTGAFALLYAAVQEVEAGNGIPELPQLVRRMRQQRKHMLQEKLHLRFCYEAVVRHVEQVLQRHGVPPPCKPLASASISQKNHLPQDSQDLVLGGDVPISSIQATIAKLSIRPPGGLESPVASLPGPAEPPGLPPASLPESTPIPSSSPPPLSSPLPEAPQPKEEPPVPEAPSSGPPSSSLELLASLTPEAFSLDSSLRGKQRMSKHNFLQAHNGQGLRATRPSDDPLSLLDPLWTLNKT
UniProt P48556: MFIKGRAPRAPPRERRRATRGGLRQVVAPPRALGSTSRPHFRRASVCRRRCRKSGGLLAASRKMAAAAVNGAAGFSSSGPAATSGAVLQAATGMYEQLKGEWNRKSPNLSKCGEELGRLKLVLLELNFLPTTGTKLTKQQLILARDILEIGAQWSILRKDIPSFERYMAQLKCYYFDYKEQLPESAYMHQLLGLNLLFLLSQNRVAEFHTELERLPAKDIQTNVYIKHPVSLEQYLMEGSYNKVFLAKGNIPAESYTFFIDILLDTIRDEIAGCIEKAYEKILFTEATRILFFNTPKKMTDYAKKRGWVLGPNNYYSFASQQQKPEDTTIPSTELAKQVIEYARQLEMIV
UniProt Q00577: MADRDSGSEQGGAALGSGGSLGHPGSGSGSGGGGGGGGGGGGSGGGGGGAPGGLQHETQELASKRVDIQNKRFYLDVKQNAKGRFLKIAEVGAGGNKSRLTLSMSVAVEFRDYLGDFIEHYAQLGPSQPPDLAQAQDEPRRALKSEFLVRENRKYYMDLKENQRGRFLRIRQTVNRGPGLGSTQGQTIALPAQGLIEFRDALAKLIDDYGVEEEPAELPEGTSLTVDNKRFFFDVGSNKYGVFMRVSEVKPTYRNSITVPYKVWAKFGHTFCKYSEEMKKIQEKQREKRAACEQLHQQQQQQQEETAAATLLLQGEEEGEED
UniProt P17706: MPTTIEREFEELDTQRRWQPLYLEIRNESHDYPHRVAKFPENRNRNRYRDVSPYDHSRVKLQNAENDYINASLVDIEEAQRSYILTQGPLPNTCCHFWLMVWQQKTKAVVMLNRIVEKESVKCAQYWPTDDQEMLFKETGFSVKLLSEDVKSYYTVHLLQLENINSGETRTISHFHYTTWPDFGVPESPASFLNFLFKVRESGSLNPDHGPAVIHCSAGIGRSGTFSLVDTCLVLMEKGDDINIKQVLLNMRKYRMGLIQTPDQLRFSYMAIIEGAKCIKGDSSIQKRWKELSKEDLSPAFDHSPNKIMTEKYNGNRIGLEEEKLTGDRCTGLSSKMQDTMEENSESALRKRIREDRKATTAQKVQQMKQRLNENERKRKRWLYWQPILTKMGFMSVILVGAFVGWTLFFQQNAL
UniProt Q9UHX1: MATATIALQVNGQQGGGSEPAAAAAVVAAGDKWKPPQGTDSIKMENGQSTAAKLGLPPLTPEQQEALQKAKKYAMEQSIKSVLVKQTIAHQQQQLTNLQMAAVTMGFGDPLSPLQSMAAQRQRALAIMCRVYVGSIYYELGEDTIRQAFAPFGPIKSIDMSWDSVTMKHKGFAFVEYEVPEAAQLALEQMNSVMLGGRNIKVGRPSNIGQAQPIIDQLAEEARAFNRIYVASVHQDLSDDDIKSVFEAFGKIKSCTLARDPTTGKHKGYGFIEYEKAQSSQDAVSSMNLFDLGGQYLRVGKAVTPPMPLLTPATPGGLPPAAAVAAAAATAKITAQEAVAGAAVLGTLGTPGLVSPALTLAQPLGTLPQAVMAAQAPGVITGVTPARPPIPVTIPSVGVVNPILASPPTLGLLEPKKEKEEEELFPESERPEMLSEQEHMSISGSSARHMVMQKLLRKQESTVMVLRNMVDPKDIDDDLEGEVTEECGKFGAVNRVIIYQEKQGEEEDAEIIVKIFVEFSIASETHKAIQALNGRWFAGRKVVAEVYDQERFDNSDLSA
UniProt Q9Y617: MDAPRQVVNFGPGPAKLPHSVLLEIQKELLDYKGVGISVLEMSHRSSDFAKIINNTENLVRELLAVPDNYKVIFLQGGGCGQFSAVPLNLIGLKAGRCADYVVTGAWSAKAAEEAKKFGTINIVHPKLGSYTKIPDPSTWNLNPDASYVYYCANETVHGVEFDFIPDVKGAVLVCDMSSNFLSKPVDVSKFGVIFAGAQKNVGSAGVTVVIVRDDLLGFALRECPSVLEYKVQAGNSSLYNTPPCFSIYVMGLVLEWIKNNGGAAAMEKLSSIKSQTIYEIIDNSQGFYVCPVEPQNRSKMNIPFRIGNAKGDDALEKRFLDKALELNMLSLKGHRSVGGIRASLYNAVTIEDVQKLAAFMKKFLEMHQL
UniProt Q99460, whole entry, looked up: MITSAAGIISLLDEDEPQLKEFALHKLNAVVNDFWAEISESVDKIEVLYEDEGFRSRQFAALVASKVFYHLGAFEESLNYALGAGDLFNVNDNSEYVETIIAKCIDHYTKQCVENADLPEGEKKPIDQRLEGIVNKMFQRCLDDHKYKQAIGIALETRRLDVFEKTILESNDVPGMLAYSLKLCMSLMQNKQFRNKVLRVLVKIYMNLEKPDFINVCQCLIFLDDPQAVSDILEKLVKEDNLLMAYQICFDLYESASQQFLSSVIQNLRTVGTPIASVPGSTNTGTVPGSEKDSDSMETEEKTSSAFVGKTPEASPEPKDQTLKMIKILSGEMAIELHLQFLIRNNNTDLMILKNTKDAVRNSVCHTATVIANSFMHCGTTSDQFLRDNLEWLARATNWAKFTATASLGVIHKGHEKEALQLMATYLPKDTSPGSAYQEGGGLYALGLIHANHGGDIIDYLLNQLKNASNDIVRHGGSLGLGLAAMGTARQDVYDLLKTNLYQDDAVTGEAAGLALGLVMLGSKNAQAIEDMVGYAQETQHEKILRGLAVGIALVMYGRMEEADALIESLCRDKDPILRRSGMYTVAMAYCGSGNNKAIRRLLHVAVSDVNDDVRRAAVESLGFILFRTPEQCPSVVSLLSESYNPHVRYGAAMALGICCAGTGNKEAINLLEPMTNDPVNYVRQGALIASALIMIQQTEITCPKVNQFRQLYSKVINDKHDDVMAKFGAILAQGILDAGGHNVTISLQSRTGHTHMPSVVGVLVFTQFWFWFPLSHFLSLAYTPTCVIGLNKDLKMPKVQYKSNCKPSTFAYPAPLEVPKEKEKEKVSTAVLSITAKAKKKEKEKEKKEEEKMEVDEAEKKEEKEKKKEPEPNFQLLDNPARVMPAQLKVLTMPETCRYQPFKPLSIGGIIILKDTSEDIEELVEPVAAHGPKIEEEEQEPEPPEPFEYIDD

[2] = compound: C/C(=N\NC(=O)C1=CC(=CC=C1)S(=O)(=O)N2CCOCC2)/C3=C(C=CC(=C3)Cl)O
Summary of the method: as §1

[3] = compound: C1=CC(=C(C=C1Cl)C2=NC3=NC=CN=C3C(=N2)NC4=CC=NC=C4)F
Summary of the method: as §1

[4] = compound: C1=CC(=CC=C1C2=NC3=C(N2)C=C(C=C3)C(=O)N)OC4=CC=C(C=C4)Cl
Summary of the method: as §1

[5] = compound: C1=CC2=C(C=CC(=C2)/C=C\3/C(=O)NC(=NCC4=CC=CS4)S3)N=C1
Summary of the method: as §1

[6] = compound: C1=CC2=NC=CN=C2C=C1/C=C/3\C(=O)NC(=O)S3
Summary of the method: as §1

[7] = compound: C1=CC=C(C=C1)C2=NC(=C(N2)C3=CC=NC=C3)C4=CC(=C(C=C4)Cl)O
Summary of the method: as §1

[8] = compound: C1=CC=C2C(=C1)C3=NNC4=CC=CC(=C43)C2=O
Summary of the method: as §1

[9] = compound: C1CCN(C1)C(=O)NC2=CC=CC(=C2)NC3=NC=C(C(=N3)NCCC4=CN=CN4)Br
Summary of the method: as §1

[10] = compound: C1CN(CCC1(CC2=CC=C(C=C2)Cl)N)C3=NC=NC4=C3C=CN4
Summary of the method: as §1

[11] = compound: C1COCCN1CCN2C3=CC=CC=C3N=C2NC(=O)C4=CC(=CC=C4)[N+](=O)[O-] [IRAK-1-4 Inhibitor I]
Summary of the method: as §1

[12] = compound: C=CC(=O)N1CCC[C@@H](n2nc(-c3ccc(Oc4ccccc4)cc3)c3c(N)ncnc32)C1 [ibrutinib]
Summary of the method: as §1

[13] = compound: CC(=O)c1cnc2ccc(-c3cc(Cl)c(O)c(Cl)c3)nc2c1N[C@H]1CC[C@H](CN(C)C)CC1
Summary of the method: as §1

[14] = compound: CC(C)(C)Cn1c(N)nc2ccc(-c3[nH]c(C(C)(C)C)nc3-c3ccc(F)cc3)nc21 [ralimetinib]
Summary of the method: as §1

[15] = compound: CC(C)(O)CC(=O)NCCn1ccc2ncnc(Nc3ccc(Oc4cccc(C(F)(F)F)c4)c(Cl)c3)c21
Summary of the method: as §1

[16] = compound: CC(C)C1=C2N=C(C=C(N2N=C1)NCC3=CC=CC=C3)NCCCCCCN
Summary of the method: as §1

[17] = compound: CC(C)C[C@@H](C=O)NC(=O)[C@H](CC(C)C)NC(=O)[C@H](CC(C)C)NC(=O)OCc1ccccc1
Summary of the method: as §1

[18] = compound: CC(C)N(C[C@H]1O[C@@H](n2cnc3c(N)ncnc32)[C@H](O)[C@@H]1O)[C@H]1C[C@@H](CCc2nc3cc(C(C)(C)C)ccc3[nH]2)C1 [pinometostat]
Summary of the method: as §1

[19] = compound: CC1=C(C2=C(C=C1)C(=O)C3=CC=CC=C3N2CCCN)C
Summary of the method: as §1

[20] = compound: CC1=C(C(CC(=O)N1)C2=CC=C(C=C2)C(F)(F)F)C(=O)NC3=C(C=C4C(=C3)C=NN4)F
Summary of the method: as §1

| Target | log2 fold change [1] | log2 fold change [2] | log2 fold change [3] | log2 fold change [4] | log2 fold change [5] | log2 fold change [6] | log2 fold change [7] | log2 fold change [8] | log2 fold change [9] | log2 fold change [10] | log2 fold change [11] | log2 fold change [12] | log2 fold change [13] | log2 fold change [14] | log2 fold change [15] | log2 fold change [16] | log2 fold change [17] | log2 fold change [18] | log2 fold change [19] | log2 fold change [20] |
| --- | --- | --- | --- | --- | --- | --- | --- | --- | --- | --- | --- | --- | --- | --- | --- | --- | --- | --- | --- | --- |
| PSMC5 (UniProt P62195) | inactive: -0.116 | inactive: -0.044 | inactive: -0.029 | inactive: 0.021 | inactive: -0.022 | inactive: -0.03 | inactive: -0.007 | inactive: 0.019 | inactive: 0.021 | inactive: -0.032 | inactive: -0.038 | inactive: -0.031 | inactive: 0.008 | inactive: -0.014 | inactive: 0.024 | inactive: 0.009 | active: -0.273 | inactive: 0.021 | inactive: 0.002 |  |
| PSMD2 (UniProt Q13200) | inactive: -0.095 | inactive: -0.095 | inactive: -0.042 | inactive: -0.001 | inactive: -0.043 | inactive: -0.024 | inactive: 0.007 | inactive: 0.016 | inactive: 0.005 | inactive: -0.021 | inactive: -0.08 | inactive: -0.035 | inactive: 0.039 | inactive: 0.018 | inactive: 0.021 | inactive: 0.039 | active: -0.296 | inactive: 0.019 | inactive: -0.036 |  |
| QRSL1 (UniProt Q9H0R6) | inactive: 0.024 | inactive: 0.052 | inactive: 0.118 | inactive: -0.002 | inactive: 0.06 | inactive: -0.023 | inactive: 0.071 | inactive: -0.032 | inactive: 0.017 | inactive: -0.116 | inactive: 0.016 | inactive: 0.023 | inactive: -0.025 | inactive: 0.001 | inactive: -0.071 | active: -0.231 | inactive: -0.003 | inactive: -0.087 | inactive: 0.025 |  |
| PTGFRN (UniProt Q9P2B2) | inactive: 0.019 | inactive: -0.006 | inactive: 0.021 | inactive: 0 | inactive: -0.034 | inactive: 0.01 | inactive: 0.015 | inactive: -0.053 | inactive: -0.027 | inactive: 0.11 | inactive: 0.009 | inactive: 0.06 | inactive: -0.111 | inactive: -0.029 | inactive: -0.026 | active: 0.222 | inactive: 0.07 | inactive: 0.002 | inactive: 0.028 |  |
| PSMB1 (UniProt P20618) | inactive: -0.131 | inactive: -0.044 | inactive: -0.022 | inactive: 0.044 | inactive: -0.075 | inactive: -0.02 | inactive: 0.045 | inactive: 0.009 | inactive: 0.014 | inactive: 0.012 | inactive: 0.002 | inactive: 0.02 | inactive: 0.041 | inactive: 0.088 | inactive: 0 | inactive: 0.164 | inactive: -0.037 | inactive: 0.006 | inactive: 0.002 | inactive: 0.02 |
| PSMA3 (UniProt P25788) | inactive: -0.052 | inactive: -0.075 | inactive: 0.016 | inactive: 0.028 | inactive: -0.073 | inactive: -0.025 | inactive: -0.023 | inactive: 0.002 | inactive: -0.008 | inactive: 0.044 | inactive: -0.027 | inactive: -0.013 | inactive: 0.008 | inactive: 0.037 | inactive: 0.071 | inactive: 0.102 | inactive: -0.065 | inactive: -0.033 | inactive: -0.014 |  |
| PSMC4 (UniProt P43686) | inactive: -0.05 | inactive: -0.092 | inactive: -0.052 | inactive: -0.004 | inactive: -0.023 | inactive: -0.032 | inactive: -0.011 | inactive: 0.006 | inactive: 0.04 | inactive: -0.041 | inactive: -0.056 | inactive: -0.012 | inactive: 0.022 | inactive: 0.014 | inactive: 0.029 | inactive: 0.034 | active: -0.249 | inactive: 0.025 | inactive: 0.016 |  |
| PSMD6 (UniProt Q15008) | inactive: -0.024 | inactive: -0.041 | inactive: -0.042 | inactive: 0.017 | inactive: -0.056 | inactive: -0.007 | inactive: 0.09 | inactive: 0.053 | inactive: 0.002 | inactive: 0.016 | inactive: -0.037 | inactive: -0.036 | inactive: 0.081 | inactive: 0.087 | inactive: 0.05 | inactive: 0.038 | active: -0.221 | inactive: 0.047 | inactive: 0.012 |  |
| PTPN23 (UniProt Q9H3S7) | inactive: 0.092 | inactive: 0.158 | inactive: -0.007 | inactive: -0.048 | inactive: 0.041 | inactive: 0.018 | inactive: 0 | inactive: 0.006 | inactive: -0.048 | inactive: -0.029 | inactive: -0.008 | inactive: -0.052 | inactive: -0.044 | inactive: 0.013 | inactive: -0.061 | inactive: -0.095 | inactive: 0.038 | inactive: -0.009 | inactive: 0.046 |  |
| PTDSS1 (UniProt P48651) | inactive: -0.076 | inactive: -0.12 | inactive: -0.099 | inactive: 0.045 | inactive: -0.031 | inactive: -0.114 | inactive: 0.03 | inactive: 0.041 | inactive: 0.016 | inactive: -0.058 | inactive: -0.146 | inactive: 0.118 | inactive: 0.021 | inactive: 0.029 | inactive: -0.023 | active: -0.585 | inactive: 0.061 | inactive: 0.212 | inactive: 0.035 |  |
| PSMD8 (UniProt P48556) | inactive: -0.045 | inactive: -0.096 | inactive: -0.046 | inactive: 0.023 | inactive: -0.027 | inactive: -0.031 | inactive: 0.036 | inactive: 0.039 | inactive: 0.055 | inactive: -0.031 | inactive: -0.058 | inactive: -0.033 | inactive: 0.076 | inactive: -0.012 | inactive: 0.022 | inactive: 0.016 | inactive: -0.194 | inactive: 0.031 | inactive: -0.014 |  |
| PURA (UniProt Q00577) | inactive: -0.244 | inactive: -0.208 | inactive: -0.319 | inactive: 0.101 | inactive: -0.156 | inactive: 0.013 | inactive: -0.137 | inactive: -0.051 | inactive: 0.179 | inactive: -0.102 | inactive: -0.151 | inactive: 0.096 | inactive: 0.169 | inactive: 0.064 | inactive: 0.276 | inactive: 0.129 | inactive: 0.079 | inactive: 0.087 | active: -0.792 |  |
| PTPN2 (UniProt P17706) | inactive: 0.042 | inactive: 0.113 | inactive: -0.014 | inactive: -0.02 | inactive: 0 | inactive: -0.024 | inactive: -0.024 | inactive: 0.017 | inactive: -0.084 | inactive: -0.082 | inactive: -0.151 | inactive: -0.07 | inactive: -0.127 | inactive: 0.013 | inactive: 0.006 | inactive: 0.034 | inactive: 0.046 | inactive: -0.044 | inactive: 0.062 |  |
| PUF60 (UniProt Q9UHX1) | inactive: -0.011 | inactive: 0.172 | inactive: -0.005 | inactive: 0.014 | inactive: -0.071 | inactive: -0.026 | inactive: 0.013 | inactive: 0.02 | inactive: -0.072 | inactive: -0.141 | inactive: -0.11 | inactive: -0.018 | active: -0.352 | inactive: 0.049 | inactive: -0.016 | active: -0.235 | inactive: -0.003 | inactive: -0.016 | inactive: 0.016 |  |
| PXK (UniProt Q7Z7A4) | inactive: 0.062 | inactive: 0.019 | inactive: -0.006 | inactive: 0.022 | inactive: 0.074 | inactive: 0.018 | active: 0.251 | inactive: 0.019 | inactive: 0.014 | inactive: 0.004 | inactive: 0.032 | inactive: 0.042 | inactive: -0.012 | inactive: 0.1 | inactive: -0.023 | inactive: -0.201 | inactive: 0.037 | inactive: 0.012 | inactive: 0.057 |  |
| PSAT1 (UniProt Q9Y617) | inactive: -0.051 | inactive: -0.008 | inactive: 0.035 | inactive: 0.011 | inactive: -0.038 | inactive: 0.012 | inactive: -0.035 | inactive: -0.039 | inactive: 0.005 | inactive: 0.055 | inactive: 0.038 | inactive: 0.011 | inactive: 0.006 | inactive: -0.037 | inactive: 0.006 | inactive: 0.055 | inactive: -0.014 | inactive: -0.042 | inactive: -0.025 | inactive: 0.021 |
| PSMD1 (UniProt Q99460) | inactive: -0.08 | inactive: -0.074 | inactive: 0.028 | inactive: 0.021 | inactive: -0.061 | inactive: -0.018 | inactive: 0.062 | inactive: 0.034 | inactive: 0.001 | inactive: -0.025 | inactive: -0.037 | inactive: -0.022 | inactive: 0.03 | inactive: 0.061 | inactive: 0.009 | inactive: 0.054 | active: -0.254 | inactive: 0.023 | inactive: -0.004 |  |

Given with tabs: entries from further up
Target	log2 fold change [1]	log2 fold change [2]	log2 fold change [3]	log2 fold change [4]	log2 fold change [5]	log2 fold change [6]	log2 fold change [7]	log2 fold change [8]	log2 fold change [9]	log2 fold change [10]	log2 fold change [11]	log2 fold change [12]	log2 fold change [13]	log2 fold change [14]	log2 fold change [15]	log2 fold change [16]	log2 fold change [17]	log2 fold change [18]	log2 fold change [19]	log2 fold change [20]
PTGFRN (UniProt Q9P2B2)	inactive: 0.019	inactive: -0.006	inactive: 0.021	inactive: 0	inactive: -0.034	inactive: 0.01	inactive: 0.015	inactive: -0.053	inactive: -0.027	inactive: 0.11	inactive: 0.009	inactive: 0.06	inactive: -0.111	inactive: -0.029	inactive: -0.026	active: 0.222	inactive: 0.07	inactive: 0.002	inactive: 0.028	
PSMB1 (UniProt P20618)	inactive: -0.131	inactive: -0.044	inactive: -0.022	inactive: 0.044	inactive: -0.075	inactive: -0.02	inactive: 0.045	inactive: 0.009	inactive: 0.014	inactive: 0.012	inactive: 0.002	inactive: 0.02	inactive: 0.041	inactive: 0.088	inactive: 0	inactive: 0.164	inactive: -0.037	inactive: 0.006	inactive: 0.002	inactive: 0.02

Source: the supplement of paper PMC10849652
